Literature values as cited in patent US20180256537A1, “METHODS FOR SURVIVAL AND REJUVENATION OF DERMAL FIBROBLASTS USING PKC ACTIVATORS” (priority 2015, published 2018).
At least one compound was matched to its structure with a doubt left.

How the values were obtained:
PKC in K562 cells = conditions: cited from earlier work
[1] = test system: cyclin dependent kinase 2 (Cdk2); conditions: at 5 ng/ml; cited from earlier work

## C=C(C)[C@@]12C[C@@H](COC(=O)c3ccccc3)[C@@]34OC5(O[C@@H]1[C@@H]3[C@@H]1O[C@]1(CO)[C@@H](O)[C@@]1(O)[C@H]4[C@H]([C@H](C)[C@@H]1OC(=O)c1ccccc1)[C@H](C)CCCCCC[C@H]5O)O2 [Gnidimacrin]
PKC in K562 cells
  concentration acting as PKC activator: 0.3 nM
[1]
  inhibition of Cdk2: 100%
